Measurements taken from the supplement of paper PMC8728848.
The other results are listed elsewhere or left out.

Experiments:
Test in all cases: glycan array binding signal (z-score within array); higher = stronger binding
Conditions in all cases: glycan notation: IUPAC condensed, linker removed
[1] = molecular target: Gal(b1-4)GlcNAc(b1-2)Man(a1-3)[Gal(b1-4)GlcNAc(b1-2)Man(a1-6)]Man(b1-4)GlcNAc(b1-4)GlcNAc
Summary of the method: (§1)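 From the Consortium for Functional Glycomics database, 3228 arrays were curated, keeping only those whose protein sequence was available. Binding is given as a within-array Z-score averaged across arrays sharing a protein sequence and across linkers. Negative Z-scores can be read as non-binding.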

[2] = molecular target: Gal(b1-4)GlcNAc(b1-2)Man(a1-3)[Gal(b1-4)GlcNAc(b1-2)Man(a1-6)]Man(b1-4)GlcNAc(b1-4)[Fuc(a1-6)]GlcNAc
Summary of the method: as §1

[3] = molecular target: Gal(b1-4)GlcNAc(b1-2)Man(a1-3)[Gal(b1-4)GlcNAc(b1-2)][GlcNAc(b1-4)]Man(b1-4)GlcNAc(b1-4)GlcNAc
Summary of the method: as §1

[4] = molecular target: Gal(b1-4)GlcNAc(b1-2)Man(a1-3)[GlcNAc(b1-2)Man(a1-6)]Man(b1-4)GlcNAc(b1-4)GlcNAc
Summary of the method: as §1

[5] = molecular target: Gal(b1-4)GlcNAc(b1-2)Man(a1-3)[Man(a1-6)]Man(b1-4)GlcNAc(b1-4)GlcNAc
Summary of the method: as §1

[6] = molecular target: Gal(b1-4)GlcNAc(b1-2)Man(a1-6)Man(b1-4)GlcNAc(b1-4)GlcNAc
Summary of the method: as §1

[7] = molecular target: Gal(b1-4)GlcNAc(b1-2)Man(a1-6)[GlcNAc(b1-2)Man(a1-3)]Man(b1-4)GlcNAc(b1-4)GlcNAc
Summary of the method: as §1

[8] = molecular target: Gal(b1-4)GlcNAc(b1-2)Man(a1-6)[Man(a1-3)]Man(b1-4)GlcNAc(b1-4)GlcNAc
Summary of the method: as §1

[9] = molecular target: Gal(b1-4)GlcNAc(b1-2)[Gal(b1-4)GlcNAc(b1-4)]Man(a1-3)[Gal(b1-4)GlcNAc(b1-2)Man(a1-6)]Man(b1-4)GlcNAc(b1-4)GlcNAc
Summary of the method: as §1

[10] = molecular target: Gal(b1-4)GlcNAc(b1-2)[Gal(b1-4)GlcNAc(b1-4)]Man(a1-3)[Gal(b1-4)GlcNAc(b1-2)[Gal(b1-4)GlcNAc(b1-6)]Man(a1-6)]Man(b1-4)GlcNAc(b1-4)GlcNAc
Summary of the method: as §1

[11] = molecular target: Gal(b1-4)GlcNAc(b1-2)[Gal(b1-4)GlcNAc(b1-4)]Man(a1-3)[GlcNAc(b1-4)][Gal(b1-4)GlcNAc(b1-2)Man(a1-6)]Man(b1-4)GlcNAc(b1-4)GlcNAc
Summary of the method: as §1

[12] = molecular target: Gal(b1-4)GlcNAc(b1-2)[Gal(b1-4)GlcNAc(b1-4)]Man(a1-3)[GlcNAc(b1-4)][Gal(b1-4)GlcNAc(b1-2)[Gal(b1-4)GlcNAc(b1-6)]Man(a1-6)]Man(b1-4)GlcNAc(b1-4)GlcNAc
Summary of the method: as §1

[13] = molecular target: Gal(b1-4)GlcNAc(b1-2)[Gal(b1-4)GlcNAc(b1-6)]Man(a1-6)[Gal(b1-4)GlcNAc(b1-2)Man(a1-3)]Man(b1-4)GlcNAc(b1-4)GlcNAc
Summary of the method: as §1

[14] = molecular target: Gal(b1-4)GlcNAc(b1-2)[Gal(b1-4)GlcNAc(b1-6)]Man(a1-6)[GlcNAc(b1-4)][Gal(b1-4)GlcNAc(b1-2)Man(a1-3)]Man(b1-4)GlcNAc(b1-4)GlcNAc
Summary of the method: as §1

[15] = molecular target: Gal(b1-4)GlcNAc(b1-3)Gal(b1-3)GlcNAc
Summary of the method: as §1

[16] = molecular target: Gal(b1-4)GlcNAc(b1-3)Gal(b1-4)Glc
Summary of the method: as §1

[17] = molecular target: Gal(b1-4)GlcNAc(b1-3)Gal(b1-4)GlcNAc
Summary of the method: as §1

[18] = molecular target: Gal(b1-4)GlcNAc(b1-3)Gal(b1-4)GlcNAc(b1-3)Gal(b1-4)GlcNAc
Summary of the method: as §1

[19] = molecular target: Gal(b1-4)GlcNAc(b1-3)Gal(b1-4)[Fuc(a1-3)GlcNAc(b1-6)]Gal(b1-4)Glc
Summary of the method: as §1

[20] = molecular target: Gal(b1-4)GlcNAc(b1-3)Gal(b1-4)[Fuc(a1-3)]GlcNAc(b1-3)Gal(b1-4)[Fuc(a1-3)]GlcNAc
Summary of the method: as §1

[21] = molecular target: Gal(b1-4)GlcNAc(b1-3)GalNAc
Summary of the method: as §1

[22] = molecular target: Gal(b1-4)GlcNAc(b1-3)[Gal(b1-4)GlcNAc(b1-6)]Gal(b1-4)GlcNAc
Summary of the method: as §1

[23] = molecular target: Gal(b1-4)GlcNAc(b1-3)[Gal(b1-4)GlcNAc(b1-6)]GalNAc
Summary of the method: as §1

[24] = molecular target: Gal(b1-4)GlcNAc(b1-3)[GlcNAc(b1-6)]Gal(b1-4)GlcNAc
Summary of the method: as §1

[25] = molecular target: Gal(b1-4)GlcNAc(b1-6)Gal(b1-4)GlcNAc
Summary of the method: as §1

[26] = molecular target: Gal(b1-4)GlcNAc(b1-6)GalNAc
Summary of the method: as §1

[27] = molecular target: Gal(b1-4)GlcNAc(b1-6)[Gal(b1-3)]GalNAc
Summary of the method: as §1

Gal(b1-6)Gal = molecular target: Gal(b1-6)Gal
Summary of the method: as §1

Gal3S(b1-3)GalNAc = molecular target: Gal3S(b1-3)GalNAc
Summary of the method: as §1

Gal3S(b1-3)GlcNAc = molecular target: Gal3S(b1-3)GlcNAc
Summary of the method: as §1

[28] = molecular target: Gal3S(b1-3)[Fuc(a1-4)]GlcNAc
Summary of the method: as §1

Gal3S(b1-4)Glc = molecular target: Gal3S(b1-4)Glc
Summary of the method: as §1

Gal3S(b1-4)Glc6S = molecular target: Gal3S(b1-4)Glc6S
Summary of the method: as §1

Gal3S(b1-4)GlcNAc = molecular target: Gal3S(b1-4)GlcNAc
Summary of the method: as §1

Gal3S(b1-4)GlcNAc6S = molecular target: Gal3S(b1-4)GlcNAc6S
Summary of the method: as §1

[29] = molecular target: Gal3S(b1-4)[Fuc(a1-3)]Glc
Summary of the method: as §1

[30] = molecular target: Gal3S(b1-4)[Fuc(a1-3)]Glc6S
Summary of the method: as §1

B1: Intelectin 1 (Homo sapiens), Q8WWA0 (protein)
chain: MNQLSFLLFLIATTRGWSTDEANTYFKEWTCSSSPSLPRSCKEIKDECPSAFDGLYFLRTENGVIYQTFCDMTSGGGGWTLVASVHENDMRGKCTVGDRWSSQQGSKAVYPEGDGNWANYNTFGSAEAATSDDYKNPGYYDIQAKDLGIWHVPNKSPMQHWRNSSLLRYRTDTGFLQTLGHNLFGIYQKYPVKYGEGKCWTDNGPVIPVVYDFGDAQKTASYYSPYGQREFTAGFVQFRVFNNERAANALCAGMRVTGCNTEHHCIGGGGYFPEASPQQCGDFSGFDWSGYGTHVGYSSSREITEAAVLLFYR
[1]
  glycan array binding signal (z-score): -0.296
[2]
  glycan array binding signal (z-score): 0.931
[3]
  glycan array binding signal (z-score): 0.605
[4]
  glycan array binding signal (z-score): 0.616
[5]
  glycan array binding signal (z-score): -0.062
[6]
  glycan array binding signal (z-score): 0.389
[7]
  glycan array binding signal (z-score): -0.009
[8]
  glycan array binding signal (z-score): -0.442
[9]
  glycan array binding signal (z-score): -0.421
[10]
  glycan array binding signal (z-score): 0.453
[11]
  glycan array binding signal (z-score): 0.186
[12]
  glycan array binding signal (z-score): 0.411
[13]
  glycan array binding signal (z-score): -0.084
[14]
  glycan array binding signal (z-score): -0.523
[15]
  glycan array binding signal (z-score): 0.961
[16]
  glycan array binding signal (z-score): 0.614
[17]
  glycan array binding signal (z-score): -0.221
[18]
  glycan array binding signal (z-score): 0.544
[19]
  glycan array binding signal (z-score): 0.487
[20]
  glycan array binding signal (z-score): 0.206
[21]
  glycan array binding signal (z-score): -0.371
[22]
  glycan array binding signal (z-score): -0.483
[23]
  glycan array binding signal (z-score): 0.005
[24]
  glycan array binding signal (z-score): 0.288
[25]
  glycan array binding signal (z-score): 0.484
[26]
  glycan array binding signal (z-score): -0.433
[27]
  glycan array binding signal (z-score): -0.064
Gal(b1-6)Gal
  glycan array binding signal (z-score): -0.348
Gal3S(b1-3)GalNAc
  glycan array binding signal (z-score): -0.197
Gal3S(b1-3)GlcNAc
  glycan array binding signal (z-score): -0.481
[28]
  glycan array binding signal (z-score): 0.759
Gal3S(b1-4)Glc
  glycan array binding signal (z-score): 0.117
Gal3S(b1-4)Glc6S
  glycan array binding signal (z-score): -0.145
Gal3S(b1-4)GlcNAc
  glycan array binding signal (z-score): -0.906
Gal3S(b1-4)GlcNAc6S
  glycan array binding signal (z-score): -0.878
[29]
  glycan array binding signal (z-score): -0.184
[30]
  glycan array binding signal (z-score): 0.387
